According to PMC6117268:
No constants are given. Whether binding was seen depends on the method and setting. For some of these results: In cells and extracts the contact can be indirect. Some results given as binding are weak or reduced against the parent protein; the word gives no strength.

Amino acid sequences for entries named in this document (tags omitted). A change or cut given only in a name is not applied to a line headed by its entry.
UniProt Q13887: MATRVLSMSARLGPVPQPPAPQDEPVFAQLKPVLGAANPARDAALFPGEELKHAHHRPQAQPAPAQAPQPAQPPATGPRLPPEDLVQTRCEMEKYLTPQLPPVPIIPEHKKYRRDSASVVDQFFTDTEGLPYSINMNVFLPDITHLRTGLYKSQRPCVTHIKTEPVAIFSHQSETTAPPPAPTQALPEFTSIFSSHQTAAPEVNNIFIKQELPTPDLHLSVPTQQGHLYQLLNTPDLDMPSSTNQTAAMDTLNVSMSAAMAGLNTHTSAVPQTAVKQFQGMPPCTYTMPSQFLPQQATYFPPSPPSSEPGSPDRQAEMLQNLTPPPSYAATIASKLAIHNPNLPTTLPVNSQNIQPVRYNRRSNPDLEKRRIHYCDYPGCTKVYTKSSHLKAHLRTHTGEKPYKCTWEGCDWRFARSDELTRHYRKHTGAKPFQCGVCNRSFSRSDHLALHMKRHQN
UniProt Q92830: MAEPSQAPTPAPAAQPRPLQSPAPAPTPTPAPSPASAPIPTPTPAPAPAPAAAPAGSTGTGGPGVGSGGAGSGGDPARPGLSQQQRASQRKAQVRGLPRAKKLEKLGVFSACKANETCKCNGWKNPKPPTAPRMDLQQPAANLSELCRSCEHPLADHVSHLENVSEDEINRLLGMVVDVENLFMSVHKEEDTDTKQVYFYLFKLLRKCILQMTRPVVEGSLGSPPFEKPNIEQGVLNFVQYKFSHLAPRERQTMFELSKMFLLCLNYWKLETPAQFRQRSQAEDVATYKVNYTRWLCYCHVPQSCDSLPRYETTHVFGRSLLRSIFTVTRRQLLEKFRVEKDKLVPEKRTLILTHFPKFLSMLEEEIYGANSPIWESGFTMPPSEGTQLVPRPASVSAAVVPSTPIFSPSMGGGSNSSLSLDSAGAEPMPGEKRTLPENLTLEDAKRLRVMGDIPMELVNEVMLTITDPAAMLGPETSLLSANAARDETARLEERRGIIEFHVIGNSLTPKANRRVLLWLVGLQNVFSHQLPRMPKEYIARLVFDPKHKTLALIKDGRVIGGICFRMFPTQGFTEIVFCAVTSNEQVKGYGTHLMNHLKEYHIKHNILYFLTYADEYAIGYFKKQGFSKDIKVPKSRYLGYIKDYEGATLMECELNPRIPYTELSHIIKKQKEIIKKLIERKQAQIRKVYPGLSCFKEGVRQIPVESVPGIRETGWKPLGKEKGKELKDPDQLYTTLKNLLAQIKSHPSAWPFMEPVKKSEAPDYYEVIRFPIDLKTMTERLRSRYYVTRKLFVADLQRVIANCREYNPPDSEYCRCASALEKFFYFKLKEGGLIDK

Assays:
[1] = target: kruppel-like factor 5 (KLF5), endogenous in A549 cells (human (endogenous in A549)) (UniProt Q13887); assay: co-IP; A549 cell extract precleared with protein G-Sepharose and pre-immune IgG, IP with antibodies against KLF5 and GCN5, immunoblot; level adjusted to precipitated total KLF5; cells treated with C5a (0 to 6 h), C5aR inhibitor W54011, anti-C5a, pIRES2-GCN5, shGCN5, TSA and NAM
[2] = target: recombinant his-tagged GCN5 (human) (UniProt Q92830); assay: pull-down; his-GCN5 (5 μg) held on cobalt-coated magnetic beads, flag-KLF5 (5 μg) added for 1 h; pulldown buffer 3.25 mM sodium-phosphate, 70 mM NaCl, 0.01% Tween-20; SDS-PAGE and coomassie blue staining; both purified
[3] = target: kruppel-like factor 5 (KLF5), endogenous in A549 cells (human (endogenous in A549)) (UniProt Q13887); assay: ChIP and Re-ChIP; A549 cells stimulated with C5a for 3 h; ChIP and second round of immunoprecipitation with anti-KLF5 and anti-GCN5 antibodies, real-time PCR of the GDF15 promoter (−103 to +58 nt)

Substance | binding [1] | binding [2] | binding [3]
GCN5 overexpressed from pIRES2-GCN5 (from UniProt Q92830-1 1-837) (enzyme) | binds | – | –
flag-tagged KLF5, purified (from UniProt Q13887-1 1-457) | – | binds | –
general control non-depressible (GCN5), endogenous in A549 cells (from UniProt Q92830 1-837) (enzyme) | binds | – | binds
